In all, about 320,000 compounds went through this assay and about 22,000 (6.9%) were called active. The shares of active, inactive and inconclusive entries below differ from those in the screen. Calls come from the whole dose curve; as a rule, active = well fitted inhibition curve with a large enough effect; inconclusive = small, poorly fitted or top-dose-only effect, or another doubt; inactive = no such curve, though single readings can be large or run the other way. A potency beside an inconclusive call is a rough fit, not a confirmed value.
Assay: Primary qHTS for delayed death inhibitors of the malarial parasite plastid, 96 hour incubation
Conditions: P. falciparum luciferase reporter growth; series mostly up to 28.7 µM; activity change, negative = inhibition: at the top concentration
Summary of the method: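 Plates of compound plus infected erythrocytes (2% hematocrit, 0.05% parasitemia final) incubate 96 hours, 37 C, 5% CO2. Detection reagent added; reduced luminescence from the parasites' luciferase reporter flags inhibition.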
For `CCN=C(Nc1ccc2c(c1)OCO2)SC1CC(=O)N(c2ccc(OC)cc2)C1=O` (stereo not given), the Potency was inconclusive: 18.5 µM [inhibitor, single point].
For `CCCCN(C(=O)c1cc(-c2ccc(F)cc2)nc2ccccc12)c1c(N)n(CCCC)c(=O)[nH]c1=O`, the Potency was active: 7.38 µM.
With `CCOC(=O)c1c(NC(=O)c2ccccc2C)sc2c1CC(C)(C)OC2` the Potency was inconclusive: 9.28 µM [inhibitor, partial curve, poor fit].
For `CS(=O)(=O)Cc1cccc(C(=O)NC2CCSc3ccccc32)c1` (stereo not given), the “activity change, negative = inhibition” value was inactive: 74.9%.
With `Cc1ccc(/C=N/N2CCCCC2)o1` the “activity change, negative = inhibition” value was inactive: 41%.
In the case of `Cc1c(N=C2C=CC(=O)c3ccccc32)c(=O)n(-c2ccccc2)n1C`, the Potency is reported as active: 14.7 µM.
In the case of `Cn1ncc(N2CCN(S(=O)(=O)c3ccc(Br)cc3)CC2)c(Cl)c1=O`, the Potency is reported as inconclusive: 13.1 µM [inhibitor, single point].
For `Cc1ccc(Cl)cc1NC(=O)C1CC(=O)N(C(C)C)C1` (stereo not given), the Potency was inconclusive: 18.5 µM [inhibitor, single point].
With `COc1cc2[nH]c(=S)n(Cc3ccc(F)cc3)c(=O)c2cc1OC` the Potency was inconclusive: 18.5 µM [inhibitor, partial curve, poor fit].
For `Cc1cc(=O)oc2cc(NC(=S)NCc3cccnc3)ccc12`, the Potency was inconclusive: 3.7 µM [inhibitor, partial curve, poor fit].
In the case of `COc1cc(CC(=O)Nc2ccccc2N2CCOCC2)cc(OC)c1OC`, the Potency is reported as inconclusive: 7.38 µM [inhibitor, partial curve, poor fit].
For `COc1cc2c(cc1OC)-c1cc(Nc3ccc4c(c3)OCCO4)nc(=O)n1CC2`, the “activity change, negative = inhibition” value was inactive: 33.2%.
With `COc1ccc(/C=C/C(=O)Nc2cccc(S(=O)(=O)NC3=NCCCCC3)c2)c(OC)c1` the Potency was inconclusive: 18.5 µM [inhibitor, single point].
In the case of `O=C(CSc1nc(-c2ccccc2)nc2ccc(F)cc12)Nc1cccc(C(=O)O)c1`, the “activity change, negative = inhibition” value is reported as inactive: 63.1%.
For `Cn1cccc1CC(=O)N/N=C/c1cccc2ccccc12`, the “activity change, negative = inhibition” value was inactive: -13%.
In the case of `Cc1ccc(N(C)C(=O)CN(C)S(=O)(=O)c2ccc3c(c2)n(C)c(=O)c(=O)n3C)cc1`, the Potency is reported as inconclusive: 18.5 µM [inhibitor, partial curve, poor fit].
In the case of `O=C(O)c1cc(S(=O)(=O)NC(CO)C(O)c2ccc([N+](=O)[O-])cc2)ccc1Br` (stereo not given), the Potency is reported as inconclusive: 13.1 µM [inhibitor, partial curve, poor fit].
For `CCOC(=O)c1c(NC(=O)COc2ncnc3ccccc23)sc(C(C)=O)c1C`, the Potency was inconclusive: 16.5 µM [inhibitor, single point].
In the case of `O=C1NC(=S)S/C1=C\c1ccc(SCc2ccco2)o1`, the “activity change, negative = inhibition” value is reported as inactive: -17.9%.
With `COc1ccc(-n2c(Cc3cccn3C)nnc2SCC(=O)N2CCCC2)cc1` the Potency was inconclusive: 18.5 µM [inhibitor, single point].
With `CSc1cccc(NC(=S)N(Cc2ccc(C)cc2)Cc2ccccn2)c1` the Potency was inconclusive: 18.5 µM [inhibitor, single point].
In the case of `O=C(CCN1CCCCC1)Nc1ccc(Br)cc1C(=O)c1ccccc1`, the “activity change, negative = inhibition” value is reported as inactive: 247%.
For `CC1CN(CCS(=O)(=O)c2cc(Cl)ccc2Cl)CC(C)O1` (stereo not given), the Potency was inconclusive: 11.7 µM [inhibitor, single point].
For `O=C(NNC1CC(=O)N(c2ccccc2)C1=O)c1ccc(COc2ccccc2Cl)o1` (stereo not given), the “activity change, negative = inhibition” value was inactive: 3.01%.
With `COC(=O)c1ccc(NC(=S)NCc2ccco2)cc1` the Potency was inconclusive: 13.1 µM [inhibitor, partial curve, poor fit].
In the case of `COc1ccc(NC(=O)Nc2cccs2)cc1OC`, the “activity change, negative = inhibition” value is reported as inactive: 34.8%.
In the case of `Cc1ccnc(SCc2cc(=O)c(OC(=O)c3cccs3)co2)n1`, the “activity change, negative = inhibition” value is reported as inactive: 33.4%.
In the case of `COc1ccccc1CNC(=O)C(Cc1c[nH]c2ccccc12)NC(=O)OCc1ccccc1` (stereo not given), the Potency is reported as inconclusive: 18.5 µM [inhibitor, single point].
In the case of `COc1ccc(NC(=O)N2CCCC2C(=O)NCc2ccccc2Cl)cc1` (stereo not given), the Potency is reported as inconclusive: 18.5 µM [inhibitor, single point].
In the case of `CSc1ccc(CNC(=O)Cc2ccc(NC(=O)C3=C(C)OCCS3)cc2)cc1`, the Potency is reported as inconclusive: 0.262 µM [inhibitor, full curve].
For `CC1=C(/C=N/Nc2ccc([N+](=O)[O-])cc2[N+](=O)[O-])C(C)(C)CCC1`, the Potency was inconclusive: 18.5 µM [inhibitor, single point].
In the case of `O=S1(=O)CC(O)C(Nc2ccc(Cl)cc2)C1` (stereo not given), the Potency is reported as active: 3.7 µM.
In the case of `FC(F)(F)c1nnc2ccc(NCc3ccccc3)nn12`, the Potency is reported as inconclusive: 16.5 µM [inhibitor, single point].
With `CN(C)C(=S)Nc1ccc(Br)c(Cl)c1` the “activity change, negative = inhibition” value was inactive: -3.98%.
With `Cc1cc(NC(=O)/C=C/c2cccc(Cl)c2)n(-c2nc3ccccc3[nH]2)n1` the Potency was inconclusive: 2.94 µM [inhibitor, partial curve, poor fit].
In the case of `COc1c(-c2ccc(O)cc2)oc2cc(O)cc(O)c2c1=O`, the “activity change, negative = inhibition” value is reported as inactive: -6.69%.
With `O=C(C1CC(=O)N(c2ccc(F)cc2)C1)N1CCCCCC1` (stereo not given) the “activity change, negative = inhibition” value was inactive: -10.2%.
In the case of `CCOC(=O)c1oc2ccccc2c1NC(=O)C1CCCCC1`, the Potency is reported as inconclusive: 0.0657 µM [inhibitor, full curve, poor fit].
In the case of `COc1ccc(C(=O)Nc2ccccc2C(=O)NCC2CCCO2)cc1` (stereo not given), the “activity change, negative = inhibition” value is reported as inactive: -11.8%.
In the case of `Cc1ccc(Nc2nc(NCCO)nc3c2cnn3C)cc1Cl`, the Potency is reported as inconclusive: 18.5 µM [inhibitor, single point].
With `COC(=O)c1ccc2[nH]c3c(c2c1)CC(C)CC3` (stereo not given) the Potency was inconclusive: 18.5 µM [inhibitor, single point].
In the case of `Cc1nc(C(=O)N2CCc3c([nH]c4ccccc34)C2c2ccccn2)cs1` (stereo not given), the “activity change, negative = inhibition” value is reported as inactive: -13.7%.
For `COc1ccc2[nH]c(=O)c(CN(C(=O)NC3CCCCC3)C3CCCCC3)cc2c1`, the Potency was inconclusive: 7.38 µM [inhibitor, partial curve].
With `CCOC(=O)C1CCN(CCC(=O)Nc2cccc(Cl)c2C)CC1` the Potency was inconclusive: 10.4 µM [inhibitor, single point].
With `CN(C)S(=O)(=O)c1cccc(COC(=O)c2cc([N+](=O)[O-])ccc2N2CCOCC2)c1` the Potency was active: 10.4 µM.
For `O=C(NCCS(=O)(=O)N1CCN(Cc2ccccc2)CC1)c1ccc(F)cc1`, the “activity change, negative = inhibition” value was inactive: 15.5%.
For `Cc1ccc(C[C@@H](NS(=O)(=O)c2ccc(C(=O)O)cc2)C(=O)O)cc1`, the “activity change, negative = inhibition” value was inactive: 15.9%.
For `CCN(CC)CCn1c(-c2ccc(C)cc2)nc(=S)c2c1CC(C)(C)OC2`, the Potency was inconclusive: 2.08 µM [inhibitor, partial curve].
In the case of `C=CCn1c(-c2csc(-c3ccc(OC)c(OC)c3)n2)n[nH]c1=S`, the Potency is reported as inconclusive: 4.65 µM [inhibitor, full curve, poor fit].
In the case of `COc1cccc(C2/C(=C(/O)c3ccccc3)C(=O)C(=O)N2Cc2ccco2)c1` (stereo not given), the “activity change, negative = inhibition” value is reported as inactive: -14.7%.
For `CCCC(C(=O)NC1CCCC1)N(C(=O)Cn1nnc(-c2ccc(C)o2)n1)c1cccc(O)c1` (stereo not given), the Potency was inconclusive: 18.5 µM [inhibitor, single point].
In the case of `Cc1cc(C(=O)N2CCc3ccccc32)n(-c2ccccc2)n1`, the Potency is reported as inconclusive: 18.5 µM [inhibitor, single point].
In the case of `CCN(CC)C(=O)CC(c1ccccc1)c1ccco1` (stereo not given), the Potency is reported as inconclusive: 1.65 µM [inhibitor, full curve, poor fit].
For `O=C(N/N=C/c1ccc[nH]1)c1ccccc1[N+](=O)[O-]`, the Potency was inconclusive: 0.657 µM [inhibitor, full curve, poor fit].
With `CCOC(=O)c1c(NC(=O)CN2CCN(C(=O)c3ccco3)CC2)sc(C(N)=O)c1C` the Potency was inconclusive: 2.94 µM [inhibitor, partial curve, poor fit].
For `O=c1c2ccc([N+](=O)[O-])cc2ncn1CCOc1cccc(Br)c1`, the Potency was inconclusive: 18.5 µM [inhibitor, single point].
For `Cc1ccc(N2CCN(S(=O)(=O)N3CCCCC3)CC2)c(C)c1`, the Potency was inconclusive: 18.5 µM [inhibitor, single point].
In the case of `CSCCC(NC(=O)c1ccccc1Cl)C(=O)Nc1ccncc1` (stereo not given), the “activity change, negative = inhibition” value is reported as inactive: -0.675%.
For `COc1ccc(C(=O)Nc2ccc(Cl)c(S(=O)(=O)Nc3ccccc3OC)c2)cc1`, the Potency was inconclusive: 2.33 µM [inhibitor, full curve, poor fit].
For `O=C(CN1CCCCC1)Nc1cccc(Br)c1`, the Potency was inconclusive: 18.5 µM [inhibitor, single point].
With `CCc1n[nH]c(=S)n1/N=C/c1cccc2ccccc12` the Potency was inconclusive: 7.38 µM [inhibitor, partial curve, poor fit].
For `Cc1cc(C(=O)CCl)c(C)n1-c1ccon1`, the Potency was inconclusive: 9.28 µM [inhibitor, partial curve, poor fit].
With `CCc1ccc(/C=C2/SC(N3CCOCC3)=NC2=O)cc1` the “activity change, negative = inhibition” value was inactive: 2.03%.
For `CCC(NC(=O)Nc1cc(OC)c(OC)c(OC)c1)(C(F)(F)F)C(F)(F)F`, the Potency was inconclusive: 18.5 µM [inhibitor, single point].
For `Cc1csc(Nc2cccc3ccccc23)n1`, the “activity change, negative = inhibition” value was inactive: 26.8%.
In the case of `COC(=O)c1cc(NC(=O)/C=C/c2ccccc2)ccc1O`, the “activity change, negative = inhibition” value is reported as inactive: 35%.
For `COc1ccc(CNC(=O)CN(C)S(=O)(=O)c2ccc3c(c2)OCCO3)cc1OC`, the Potency was inconclusive: 0.165 µM [inhibitor, full curve, poor fit].
For `Cc1ccc(-c2nc(NC(=O)CSc3ccc4ccccc4n3)ns2)cc1`, the Potency was inconclusive: 11.7 µM [inhibitor, partial curve, poor fit].
In the case of `COc1ccc(CN(C)C(=O)c2cc(-c3ccccc3)nc3ccc(C)cc23)c(OC)c1OC`, the Potency is reported as inconclusive: 1.31 µM [inhibitor, full curve].
With `S=c1[nH]nc(-c2cccc(Cl)c2)n1CCN1CCCCC1` the Potency was inconclusive: 18.5 µM [inhibitor, single point].

Reference: PubChem BioAssay AID504834 (National Center for Advancing Translational Sciences (NCATS), 2011)
% is set by controls: 0 for no effect and ±100 for the full control effect; potency is the fitted concentration of half-maximal effect.
